Here are results for one molecule from article doi:10.1101/2020.02.18.953711 (bioRxiv, 2020).

In the assay the target is T1, C-terminally encoded peptide receptor 2 (CEPR2), MbSUS fusion (Arabidopsis thaliana) (UniProt Q9C7T7).
T1 sequence: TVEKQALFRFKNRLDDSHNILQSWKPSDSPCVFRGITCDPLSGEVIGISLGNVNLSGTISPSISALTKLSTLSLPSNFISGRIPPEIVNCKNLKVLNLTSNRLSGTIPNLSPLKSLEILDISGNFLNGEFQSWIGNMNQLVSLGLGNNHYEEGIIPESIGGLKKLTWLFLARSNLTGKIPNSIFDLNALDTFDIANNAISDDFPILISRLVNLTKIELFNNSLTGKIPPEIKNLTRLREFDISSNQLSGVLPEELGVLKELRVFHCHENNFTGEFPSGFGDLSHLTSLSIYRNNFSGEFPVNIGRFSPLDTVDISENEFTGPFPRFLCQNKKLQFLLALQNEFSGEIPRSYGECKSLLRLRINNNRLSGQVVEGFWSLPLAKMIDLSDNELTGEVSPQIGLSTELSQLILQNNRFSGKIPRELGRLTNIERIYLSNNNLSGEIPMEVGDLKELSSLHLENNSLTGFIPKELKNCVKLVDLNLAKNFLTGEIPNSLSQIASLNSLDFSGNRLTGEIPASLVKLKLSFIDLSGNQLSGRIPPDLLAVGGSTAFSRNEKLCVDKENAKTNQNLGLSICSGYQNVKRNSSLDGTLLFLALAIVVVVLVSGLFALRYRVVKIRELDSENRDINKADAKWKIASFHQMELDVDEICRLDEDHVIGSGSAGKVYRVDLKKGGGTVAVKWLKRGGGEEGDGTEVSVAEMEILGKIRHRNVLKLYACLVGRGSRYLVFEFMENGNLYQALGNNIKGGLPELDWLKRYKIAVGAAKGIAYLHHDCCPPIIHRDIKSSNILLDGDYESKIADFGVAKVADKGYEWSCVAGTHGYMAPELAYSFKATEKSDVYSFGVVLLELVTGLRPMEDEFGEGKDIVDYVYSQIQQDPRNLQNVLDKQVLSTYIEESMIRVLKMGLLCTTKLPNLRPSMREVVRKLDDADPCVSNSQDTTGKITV
The experiment in a line: two-hybrid.

These are yes or no findings as the source states them, for the method shown. Tags and fused reporters may be left off the sequences shown.

B1: ABCG31, MbSUS fusion (protein, UniProt Q7PC88 1-1426)
chain: MAAASNGSEYFEFDVETGRESFARPSNAETVEQDEEDLRWAAIGRLPSQRQGTHNAILRRSQTQTQTSGYADGNVVQTIDVKKLDRADREMLVRQALATSDQDNFKLLSAIKERLDRVGMEVPKIEVRFENLNIEADVQAGTRALPTLVNVSRDFFERCLSSLRIIKPRKHKLNILKDISGIIKPGRMTLLLGPPGSGKSTLLLALAGKLDKSLKKTGNITYNGENLNKFHVKRTSAYISQTDNHIAELTVRETLDFAARCQGASEGFAGYMKDLTRLEKERGIRPSSEIDAFMKAASVKGEKHSVSTDYVLKVLGLDVCSDTMVGNDMMRGVSGGQRKRVTTGEMTVGPRKTLFMDEISTGLDSSTTFQIVKCIRNFVHLMDATVLMALLQPAPETFDLFDDLILLSEGYMVYQGPREDVIAFFESLGFRLPPRKGVADFLQEVTSKKDQAQYWADPSKPYQFIPVSDIAAAFRNSKYGHAADSKLAAPFDKKSADPSALCRTKFAISGWENLKVCFVRELLLIKRHKFLYTFRTCQVGFVGLVTATVFLKTRLHPTSEQFGNEYLSCLFFGLVHMMFNGFSELPLMISRLPVFYKQRDNSFHPAWSWSIASWLLRVPYSVLEAVVWSGVVYFTVGLAPSAGRFFRYMLLLFSVHQMALGLFRMMASLARDMVIANTFGSAAILIVFLLGGFVIPKADIKPWWVWGFWVSPLSYGQRAIAVNEFTATRWMTPSAISDTTIGLNLLKLRSFPTNDYWYWIGIAVLIGYAILFNNVVTLALAYLNPLRKARAVVLDDPNEETALVADANQVISEKKGMILPFKPLTMTFHNVNYYVDMPKEMRSQGVPETRLQLLSNVSGVFSPGVLTALVGSSGAGKTTLMDVLAGRKTGGYTEGDIRISGHPKEQQTFARISGYVEQNDIHSPQVTVEESLWFSASLRLPKEITKEQKKEFVEQVMRLVELDTLRYALVGLPGTTGLSTEQRKRLTIAVELVANPSIIFMDEPTSGLDARAAAIVMRTVRNTVDTGRTVVCTIHQPSIDIFEAFDELLLMKRGGQVIYGGKLGTHSQVLVDYFQGINGVPPISSGYNPATWMLEVTTPALEEKYNMEFADLYKKSDQFREVEANIKQLSVPPEGSEPISFTSRYSQNQLSQFLLCLWKQNLVYWRSPEYNLVRLVFTTIAAFILGTVFWDIGSKRTSSQDLITVMGALYSACLFLGVSNASSVQPIVSIERTVFYREKAAGMYAPIPYAAAQGLVEIPYILTQTILYGVITYFTIGFERTFSKFVLYLVFMFLTFTYFTFYGMMAVGLTPNQHLAAVISSAFYSLWNLLSGFLVQKPLIPVWWIWFYYICPVAWTLQGVILSQLGDVESMINEPLFHGTVKEFIEYYFGYKPNMIGVSAAVLVGFCALFFSAFALSVKYLNFQRR
Regarding B1, the binding result is recorded as “no binding”.
